Our source for the binding values is paper doi:10.1101/568113.

Assay [1] has as its target T1, PEN2 myrosinase, split-ubiquitin yeast two-hybrid fusion (Arabidopsis thaliana) (UniProt O64883).
T1 sequence: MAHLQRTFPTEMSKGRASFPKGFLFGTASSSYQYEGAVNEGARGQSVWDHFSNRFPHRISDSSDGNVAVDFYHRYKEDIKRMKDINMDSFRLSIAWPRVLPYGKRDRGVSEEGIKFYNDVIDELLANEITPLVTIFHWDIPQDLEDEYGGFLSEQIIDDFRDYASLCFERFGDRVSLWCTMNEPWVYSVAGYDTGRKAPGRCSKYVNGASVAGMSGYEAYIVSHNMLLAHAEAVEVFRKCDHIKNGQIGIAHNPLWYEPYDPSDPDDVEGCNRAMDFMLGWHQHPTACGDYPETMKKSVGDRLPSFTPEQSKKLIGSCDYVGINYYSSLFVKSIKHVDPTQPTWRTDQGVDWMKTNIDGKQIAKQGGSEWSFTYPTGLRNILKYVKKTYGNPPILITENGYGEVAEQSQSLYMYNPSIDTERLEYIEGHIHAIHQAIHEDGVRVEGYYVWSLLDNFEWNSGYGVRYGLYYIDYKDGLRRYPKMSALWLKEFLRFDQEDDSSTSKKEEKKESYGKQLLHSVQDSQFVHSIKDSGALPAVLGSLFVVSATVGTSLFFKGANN
Kind of assay: two-hybrid.

For assay [2], the target named is PEN2-GFP (Arabidopsis thaliana) (UniProt O64883). Briefly: co-IP.

Results are given in words; binding and its absence hold for the method and conditions named. For some assays here: Binding seen in cells or lysates may run through a third protein. For some assays here: Where a sequence is shown, tags or fusion partners need not be part of it.

B1: Phytochelatin synthase 1 (PCS1), split-ubiquitin yeast two-hybrid fusion (enzyme, UniProt Q9S7Z3 1-485)
chain: MAMASLYRRSLPSPPAIDFSSAEGKLIFNEALQKGTMEGFFRLISYFQTQSEPAYCGLASLSVVLNALSIDPGRKWKGPWRWFDESMLDCCEPLEVVKEKGISFGKVVCLAHCSGAKVEAFRTSQSTIDDFRKFVVKCTSSENCHMISTYHRGVFKQTGTGHFSPIGGYNAERDMALILDVARFKYPPHWVPLKLLWEAMDSIDQSTGKRRGFMLISRPHREPGLLYTLSCKDESWIEIAKYLKEDVPRLVSSQHVDSVEKIISVVFKSLPSNFNQFIRWVAEIRITEDSNQNLSAEEKSRLKLKQLVLKEVHETELFKHINKFLSTVGYEDSLTYAAAKACCQGAEILSGSPSKEFCCRETCVKCIKGPDDSEGTVVTGVVVRDGNEQKVDLLVPSTQTECECGPEATYPAGNDVFTALLLALPPQTWSGIKDQALMHEMKQLISMASLPTLLQEEVLHLRRQLQLLKRCQENKEEDDLAAPAY
For the molecule B1, the binding result in assay [1] is on record as “no binding”.

B2: 3xHA-RFP-PCS1 (enzyme, UniProt Q9S7Z3 1-485)
chain: B1 chain
Turning to B2, the binding entry in assay [2] was “no binding”.
